The record followed here is PubChem BioAssay AID445 (National Center for Advancing Translational Sciences (NCATS), 2006).

Molecules are shown by their SMILES. “And” between values parts separate entries of the source, which are not always exact repeats. Equal values may be shown once. The list shows a part of the results. These are further read-outs of the screen, such as a control signal, another cell line or another target. No call is given for them. Most of these compounds were active or inconclusive in the main read-out, so they are no random draw. The note in brackets gives the kind of curve behind each potency; many fits are weak.

The nature of this assay: IkB Signaling. Particulars: ABC-DLBCL IkBa-CBG/CBR dual luciferase ratio (green luciferase fused to IkBa over red control in OCI-Ly3 lymphoma cells), 4 h. The gist of the method: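 Curves were fitted separately to fusion (green), unfused (red) and ratio luminescence, then classed by r2, magnitude and activity. Cells: OCI-Ly3, 4 h compound plus doxycycline at 37C; 10 uM MG-132 defined full response.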
The mark [1] stands for this setting: measured here: control luc red channel.
Setting [2] is: measured here: IkB-luc green channel.

Consider `CCNc1nc(Cl)nc(NC(C)C)n1`, for which the half-maximal activity concentration (AC50) under setting [1] was 5.01 µM [rising, partial curve, poor fit].
Consider `Oc1c(Br)c(Br)c(Br)c(Br)c1Br`, for which the half-maximal activity concentration (AC50) under setting [1] was 2.51 µM [falling, full curve].
As for `BrCC(Br)(Br)Br`, under setting [2], the AC50 was 31.6 µM [rising, partial curve].
Take `CCOC(=O)c1ccc(NC(=O)c2cccn(Cc3ccccc3F)c2=O)cc1`: under setting [1], the half-maximal activity concentration (AC50) is 3.98 µM [rising, full curve].
Regarding `O=C1Nc2cc(Cl)c(Cl)cc2N2CCNC[C@H]12`, the AC50 under setting [1] was 39.8 µM [falling, partial curve].
As to `CSC([N-]/N=C/c1cccc(C)n1)=[S]=[Cu].CS[C@H]([S-])[N-]/N=C/c1cccc(C)n1`, the AC50 by setting is: under setting [2], 1 µM [rising, partial curve]; under setting [1], 0.794 µM [falling, full curve].
For the compound `N#Cc1ccccc1NC(=O)c1cccn(Cc2ccccc2)c1=O`, under setting [1], the concentration at half-maximal activity (AC50) is 3.16 µM [falling, single point].
Turning to `NCC#Cc1ccccc1`, the AC50 reads like this: under setting [2], 5.01 µM [rising, partial curve, poor fit]; under setting [1], 31.6 µM [falling, partial curve].
Consider `O=C(Cn1cc(C(=O)c2ccccc2)c2ccccc21)Nc1ccc(Br)cc1`, for which the AC50 under setting [1] is 7.94 µM [falling, partial curve].
For `COc1ccc(-c2nc(CN3C(=O)CN=C(c4ccccc4Cl)c4cc(Cl)ccc43)c(C)o2)cc1OC`, under setting [1], the AC50 is 15.8 µM [falling, partial curve].
For `CNc1ccc2oc(C[C@H]3O[C@]4(CC[C@H]3C)O[C@H]([C@H](C)C(=O)c3ccc[nH]3)[C@H](C)C[C@H]4C)nc2c1C(=O)O`, the concentration at half-maximal activity (AC50) under setting [1] was 10 µM [falling, partial curve].
For the compound `COc1cccc2c1C(=O)c1c(O)c3c(c(O)c1C2=O)C[C@](O)(/C(C)=N\O)C[C@@H]3O[C@H]1C[C@H](N)[C@@H](O)[C@H](C)O1`, under setting [1], the AC50 was 3.16 µM [falling, partial curve].
For the compound `O=c1c2ccccc2[se]n1-c1ccccc1`, the AC50 runs as follows: under setting [2], 7.94 µM [rising, partial curve] and 15.8 µM [rising, partial curve]; under setting [1], 25.1 µM [falling, partial curve] and 5.01 µM [falling, partial curve].
Regarding `C/C=C(\C)C(=O)O[C@@H]1C(C)=C2[C@H]([C@@H]1OC(=O)CCCCCCC)[C@@](C)(OC(C)=O)C[C@@H](OC(=O)CCC)[C@@]1(O)[C@H]2OC(=O)[C@]1(C)O`, under setting [2], the AC50 was 0.0631 µM [rising, full curve].
As to `CCn1nc(-c2cccs2)nc2c(=O)n(C)c(=O)nc1-2`, the AC50 is 3.98 µM [rising, partial curve] under setting [2] and 10 µM [falling, partial curve] under setting [1].
Regarding `CN1CCN(c2ccc(NC(=O)C(C)(C)C)cc2)CC1`, the AC50 under setting [1] is 15.8 µM [falling, partial curve].
For `Cc1cccc(-n2c(/C=C/c3cn(C)c4ccccc34)nc3ccccc3c2=O)c1`, the half-maximal activity concentration (AC50) under setting [1] is 3.16 µM [falling, full curve].
On the same count and under the same terms, for `Cc1cc(NC(=O)c2cccn(Cc3cccc(Cl)c3)c2=O)no1` the value was 0.251 µM [falling, full curve, poor fit]; for `O=C1CN=C(c2ccccc2)c2oc3ccc(Br)cc3c2N1`, 3.98 µM [rising, single point].
As to `CCCCCn1c(N)c(C(=O)NCCN2CCOCC2)c2nc3ccccc3nc21`, the concentration at half-maximal activity (AC50) under setting [1] is 39.8 µM [falling, single point].
As to `O=C(COc1cccc(Cl)c1)N1CCN(CCc2ccncc2)CC1`, under setting [1], the AC50 was 10 µM [falling, partial curve].
As to `CN(C)c1ccc(N=O)cc1`, the AC50 was 3.16 µM [rising, full curve] under setting [2] and 3.16 µM [falling, full curve] under setting [1].
`Cc1ccc(Cn2cccc(C(=O)Nc3cc([N+](=O)[O-])ccc3C)c2=O)cc1`: under setting [1], the concentration at half-maximal activity (AC50) is 3.16 µM [rising, full curve].
For `C[C@@H]1O[C@H](O[C@H]2C[C@@H](O)[C@@]3(CO)[C@H]4[C@@H](O)C[C@]5(C)[C@@H](C6=CC(=O)OC6)CC[C@]5(O)[C@H]4CC[C@]3(O)C2)[C@@H](O)[C@H](O)[C@@H]1O`, the AC50 under setting [1] was 0.631 µM [falling, full curve, poor fit].
Regarding `COC(=O)c1c(C)n(Cc2ccc3c(c2)OCO3)c2ccc(O)cc12`, the half-maximal activity concentration (AC50) under setting [1] is 10 µM [falling, partial curve].
The same measure, in the same setting: for `O=C(COc1ccccc1Cl)N1CCN(CCc2ccncc2)CC1` the value was 1.26 µM [falling, partial curve].
As for `O=C(CCc1nc(C2=CCN(Cc3cccc(Cl)c3)CC2)no1)Nc1ccccc1F`, the AC50 under setting [1] was 1 µM [falling, partial curve, poor fit].
On to `Cc1ccc(N2C(=O)NC(=O)C3(Cc4ccccc4N4CCN(c5ccccc5)CC43)C2=O)cc1` (stereo unspecified), for which the AC50 under setting [1] is 1.26 µM [falling, full curve].
In the case of `c1ccc(CCCN2CCN(CCOC(c3ccccc3)c3ccccc3)CC2)cc1`, the AC50 under setting [1] was 31.6 µM [falling, partial curve].
On to `O=c1c2ccccc2nc(/C=C\c2ccc(F)cc2)n1-c1ccccc1F`, for which the concentration at half-maximal activity (AC50) under setting [1] is 10 µM [falling, partial curve].
With `Cc1cccc(NC(=O)Cn2cc(C(=O)c3ccccc3)c3ccccc32)c1`, the half-maximal activity concentration (AC50) under setting [1] was 25.1 µM [falling, single point].
For `O=C(O)[C@H]1[C@H](C(=O)O)[C@H]2CC[C@@H]1O2`, the concentration at half-maximal activity (AC50) under setting [2] was 31.6 µM [rising, partial curve, poor fit].
For `CC[n+]1c(-c2ccccc2)c2cc(N)ccc2c2ccc(N)cc21`, under setting [1], the concentration at half-maximal activity (AC50) was 0.501 µM [falling, full curve, poor fit].
Still for that read-out and setting: as for `COc1ccc(Cl)cc1NC(=O)CN1C(=O)CN=C(c2ccccc2)c2cc(Cl)ccc21`, the figure is 20 µM [falling, single point].
Regarding `O=c1c2ccccc2nc(/C=C/c2cccc3ccccc23)n1-c1ccccc1Cl`, the AC50 under setting [1] is 10 µM [falling, partial curve].
`Fc1ccc2c(c1)nnn2C1CCN(Cc2nnnn2CCc2ccccc2)CC1`: under setting [1], the AC50 was 25.1 µM [falling, single point].
On to `C(=C/c1ccccc1)/CN1CCN(CCOC(c2ccccc2)c2ccccc2)CC1`, for which the AC50 under setting [1] is 31.6 µM [falling, partial curve].
Turning to `COc1ccc2[nH]cc(C3=CCNCC3)c2c1`, the AC50 under setting [1] is 31.6 µM [falling, partial curve].
Still for that read-out and setting: for `Cc1ccc(-n2c(/C=C/c3ccc(Br)s3)nc3ccccc3c2=O)cc1` the value was 25.1 µM [falling, partial curve].
Turning to `Cc1cccc(-n2c(/C=C/c3ccccc3O)nc3ccccc3c2=O)c1`, the AC50 under setting [1] is 15.8 µM [falling, partial curve].
On to `CC1=C(O)C(=O)[C@H]2O[C@@H]2C1=O`, for which the AC50 runs as follows: under setting [2], 15.8 µM [rising, partial curve]; under setting [1], 3.98 µM [rising, full curve].
`O=c1c2ccccc2nc(/C=C\c2ccccc2F)n1-c1ccc(O)cc1`: the half-maximal activity concentration (AC50) under setting [1] was 25.1 µM [falling, single point].
With `Nc1c(C(=O)OCC2CCCO2)c2nc3ccccc3nc2n1Cc1cccs1` (stereo unspecified), the AC50 under setting [1] was 25.1 µM [falling, partial curve].
`Cc1c(C(c2ccc(Cl)cc2Cl)c2c(O)c3ccccc3oc2=O)c(=O)n(-c2ccccc2)n1C` (stereo unspecified): under setting [1], the AC50 was 12.6 µM [falling, partial curve].
In the case of `COc1ccc(C(=O)Nc2ccc(Cl)cc2C(=O)c2ccccc2)c(OC)c1`, the half-maximal activity concentration (AC50) under setting [1] is 12.6 µM [falling, partial curve].
Still for that read-out and setting: as for `Cc1ccccc1CN1C(=O)CN=C(c2ccccc2)c2cc(Cl)ccc21`, the figure is 31.6 µM [falling, partial curve]; as for `Cc1nc2cc(-c3cccc(F)c3)nn2c(C)c1CCC(=O)N1CCC2(CC1)OCCO2`, 0.398 µM [falling, full curve].
As to `Cc1cc(-n2c(/C=C/c3ccc(Br)s3)nc3ccccc3c2=O)ccc1Br`, the AC50 under setting [1] was 20 µM [falling, partial curve].
For the compound `O=S(=O)(Cl)c1ccccc1`, the half-maximal activity concentration (AC50) under setting [2] is 39.8 µM [rising, partial curve].
Turning to `CC[C@H]1CN2CCc3cc(OC)c(OC)cc3[C@H]2C[C@@H]1C[C@H]1NCCc2c1[nH]c1ccc(O)cc21`, the AC50 under setting [1] was 0.0631 µM [falling, full curve].
Regarding `COc1ccc(NC(=O)CN2C(=O)C(C)N=C(c3ccccc3F)c3cc(Cl)ccc32)c(OC)c1` (stereo unspecified), the concentration at half-maximal activity (AC50) under setting [1] was 39.8 µM [falling, single point].
On the same count and under the same terms, for `CCCNC(=O)c1c(N)n(CC2CCCO2)c2nc3ccccc3nc12` (stereo unspecified) the value was 25.1 µM [falling, partial curve].
With `CCCCCCCCCCCC[N+](C)(C)CCOc1ccccc1`, the concentration at half-maximal activity (AC50) under setting [1] is 39.8 µM [falling, partial curve, poor fit].
For `CCCCCCCCn1sccc1=O`, the AC50 reads like this: under setting [2], 3.16 µM [rising, partial curve]; under setting [1], 15.8 µM [falling, full curve].
With `CC(C)(c1ccc(OC[C@@H]2CO2)cc1)c1ccc(OC[C@H]2CO2)cc1`, the AC50 under setting [1] was 39.8 µM [falling, partial curve].
On the same count and under the same terms, as for `COC(=O)C1=C(N)Oc2c(c(=O)oc3ccccc23)[C@]12C(=O)N(C)c1ccccc12`, the figure is 0.316 µM [falling, full curve]; as for `C[C@@H]1O[C@@H](O[C@H]2C[C@@H](O)[C@@]3(CO)[C@H]4[C@H](O)C[C@]5(C)[C@@H](C6=CC(=O)OC6)CC[C@]5(O)[C@H]4CC[C@@]3(O)C2)[C@@H](O)[C@H](O)[C@H]1O`, 0.251 µM [falling, full curve]; as for `Cc1ccc(-n2c(/C=C/c3ccc(Br)s3)nc3ccccc3c2=O)cc1C`, 25.1 µM [falling, single point].
As to `CC(=O)[O][Hg][c]1ccccc1`, under setting [1], the AC50 was 2 µM [falling, full curve].
